Like-named read-outs stand apart in the source and are kept apart here. These are yes or no findings as the source states them, for the method shown. Binding can be weak; no strength is given.
Tests used:
CLPS [1] = target: CLPS (UniProt P04118); assay: pull-down
CLPS [2] = target: CLPS (UniProt P04118); assay: pull-down; remark: listed apart in the source

Sequences of proteins named here, by UniProt entry; tags and fusion partners are left off. A change or cut given only in a name is not applied to a line headed by its entry.
UniProt P04118: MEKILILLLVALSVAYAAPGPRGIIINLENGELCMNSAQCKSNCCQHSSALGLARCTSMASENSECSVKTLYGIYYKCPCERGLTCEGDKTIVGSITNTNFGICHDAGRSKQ

B1: CUTA (protein, UniProt O60888 33-179)
chain: RLLLLPRVLLTMASGSPPTQPSPASDSGSGYVPGSVSAAFVTCPNEKVAKEIARAVVEKRLAACVNLIPQITSIYEWKGKIEEDSEVLMMIKTQSSLVPALTDFVRSVHPYEVAEVIALPVEQGNFPYLQWVRQVTESVSDSITVLP
With B1 the binding (CLPS [1]) was “binds” and the binding (CLPS [2]) was “binds”.

From publication doi:10.1101/459065
